The list shows only some results of the screen, not a fair sample: it covers a few groups of compounds. Other doses and runs of a compound may be missing. T/C gives the treated animals as a percentage of the vehicle group. Some entries show no survivor count and are marked so; the dose need not have been tolerated. Schedules are NCI's codes, taken here to give the interval after Q, in days (D) or hours (H), and the number of doses after X. Some doses were run more than once; their values stand side by side, smallest first.
Test system: BDF1 mice, Adenocarcinoma 755 s.c., tumor weight T/C
Test: NCI In Vivo Anticancer Drug Screen. Data for tumor model Adenocarcinoma 755 (subcutaneous) in B6D2F1 (BDF1) mice
Settings: T/C endpoint: mean tumor weight, schedule: Q01DX011 (ip), evaluation day not shown, higher T/C = larger tumour
Description: The antitumor activity of compounds was measured in mice bearing transplantable tumors. Survival or tumor size were measured and the results are expressed as the measurement made in the treated group (T) divided by the measurement made in the vehicle treated control group (C). The tumor model used in this assay is Adenocarcinoma 755 (subcutaneous) in B6D2F1 (BDF1) mice

[1] = dose: 25.0 mg/kg/injection, vehicle: carboxymethylcellulose (CMC)
[2] = dose: 50.0 mg/kg/injection, vehicle: carboxymethylcellulose (CMC)

## N#CC(C#N)=Cc1ccc(N(CCCl)CCCl)cc1
dose: 56.0 mg/kg/injection, vehicle: carboxymethylcellulose (CMC)
  T/C: 48 % of control [survivor count not shown]
dose: 112.0 mg/kg/injection, vehicle: carboxymethylcellulose (CMC)
  T/C: 27 % of control [survivor count not shown]
dose: 225.0 mg/kg/injection, vehicle: carboxymethylcellulose (CMC)
  T/C: 17 % of control [survivor count not shown]

## Cn1c(=O)[nH]cc(N(CCCl)CCCl)c1=O
dose: 0.44 mg/kg/injection, vehicle: methylcellulose (MC)
  T/C: 51 [survivor count not shown] and 64 % of control [survivor count not shown]
dose: 0.88 mg/kg/injection, vehicle: methylcellulose (MC)
  T/C: 32 [survivor count not shown] and 68 % of control [survivor count not shown]
dose: 1.75 mg/kg/injection, vehicle: methylcellulose (MC)
  T/C: 14 [survivor count not shown] and 20 % of control [survivor count not shown]

## Cc1cc(C)c2nc(CN(CCCl)CCCl)[nH]c2c1
dose: 0.19 mg/kg/injection, vehicle: methylcellulose (MC)
  T/C: 65 % of control [survivor count not shown]
dose: 0.38 mg/kg/injection, vehicle: methylcellulose (MC)
  T/C: 70 % of control [survivor count not shown]
dose: 0.75 mg/kg/injection, vehicle: methylcellulose (MC)
  T/C: 19 % of control [survivor count not shown]
dose: 1.0 mg/kg/injection, vehicle: methylcellulose (MC)
  T/C: 65 % of control [survivor count not shown]
dose: 1.5 mg/kg/injection, vehicle: methylcellulose (MC)
  T/C: 41 % of control [survivor count not shown]
dose: 3.0 mg/kg/injection, vehicle: carboxymethylcellulose (CMC)
  T/C: 66 % of control [survivor count not shown]
dose: 3.0 mg/kg/injection, vehicle: methylcellulose (MC)
  T/C: 35 % of control [survivor count not shown]
dose: 3.2 mg/kg/injection, vehicle: methylcellulose (MC)
  T/C: 38 [survivor count not shown] and 108 % of control [survivor count not shown]
dose: 6.0 mg/kg/injection, vehicle: carboxymethylcellulose (CMC)
  T/C: 55 % of control [survivor count not shown]
dose: 6.0 mg/kg/injection, vehicle: methylcellulose (MC)
  T/C: 44 % of control [survivor count not shown]
dose: 6.5 mg/kg/injection, vehicle: methylcellulose (MC)
  T/C: 32 [survivor count not shown] and 85 % of control [survivor count not shown]
dose: 12.0 mg/kg/injection, vehicle: carboxymethylcellulose (CMC)
  T/C: 43 [survivor count not shown] and 149 % of control [survivor count not shown]
dose: 13.0 mg/kg/injection, vehicle: methylcellulose (MC)
  T/C: 7 [survivor count not shown] and 47 % of control [survivor count not shown]
dose: 24.0 mg/kg/injection, vehicle: carboxymethylcellulose (CMC)
  T/C: 36 [survivor count not shown] and 111 % of control [survivor count not shown]

## NC(Cc1cccc(N(CCCl)CCCl)c1)C(=O)O (stereo unspecified)
dose: 0.15 mg/kg/injection, vehicle: carboxymethylcellulose (CMC)
  T/C: 16 % of control [survivor count not shown]
dose: 0.6 mg/kg/injection, vehicle: carboxymethylcellulose (CMC)
  T/C: 9 % of control [survivor count not shown]
dose: 0.62 mg/kg/injection, vehicle: carboxymethylcellulose (CMC)
  T/C: 46 % of control [survivor count not shown]
dose: 1.25 mg/kg/injection, vehicle: carboxymethylcellulose (CMC)
  T/C: 5 [survivor count not shown] and 8 % of control [survivor count not shown]
dose: 2.5 mg/kg/injection, vehicle: carboxymethylcellulose (CMC)
  T/C: 4 [survivor count not shown] and 7 % of control [survivor count not shown]
dose: 5.0 mg/kg/injection, vehicle: carboxymethylcellulose (CMC)
  T/C: 3 % of control [survivor count not shown]

## O[C@@H](CNCCCl)[C@@H](O)CNCCCl
dose: 1.25 mg/kg/injection, vehicle: saline
  T/C: 57 % of control [survivor count not shown]
dose: 2.5 mg/kg/injection, vehicle: saline
  T/C: 29 % of control [survivor count not shown]
dose: 5.0 mg/kg/injection, vehicle: saline
  T/C: 7 % of control [survivor count not shown]
dose: 10.0 mg/kg/injection, vehicle: saline
  T/C: 2 % of control [survivor count not shown]

## CCCCOc1ccc(N(CCCl)CCCl)cc1
dose: 1.0 mg/kg/injection, vehicle: carboxymethylcellulose (CMC)
  T/C: 101 % of control [survivor count not shown]
dose: 1.4 mg/kg/injection, vehicle: carboxymethylcellulose (CMC)
  T/C: 48 % of control [survivor count not shown]
dose: 2.1 mg/kg/injection, vehicle: methylcellulose (MC)
  T/C: 32 % of control [survivor count not shown]
dose: 2.5 mg/kg/injection, vehicle: methylcellulose (MC)
  T/C: 53 % of control [survivor count not shown]
dose: 2.7 mg/kg/injection, vehicle: carboxymethylcellulose (CMC)
  T/C: 60 % of control [survivor count not shown]
dose: 5.0 mg/kg/injection, vehicle: methylcellulose (MC)
  T/C: 31 [survivor count not shown] and 40 % of control [survivor count not shown]
dose: 5.3 mg/kg/injection, vehicle: carboxymethylcellulose (CMC)
  T/C: 17 % of control [survivor count not shown]
dose: 5.3 mg/kg/injection, vehicle: methylcellulose (MC)
  T/C: 23 % of control [survivor count not shown]
dose: 9.0 mg/kg/injection, vehicle: carboxymethylcellulose (CMC)
  T/C: 62 % of control [survivor count not shown]
dose: 10.5 mg/kg/injection, vehicle: carboxymethylcellulose (CMC)
  T/C: 9 % of control [survivor count not shown]
dose: 10.5 mg/kg/injection, vehicle: methylcellulose (MC)
  T/C: 1 % of control [survivor count not shown]
dose: 15.8 mg/kg/injection, vehicle: carboxymethylcellulose (CMC)
  T/C: 3 % of control [survivor count not shown]
dose: 17.0 mg/kg/injection, vehicle: carboxymethylcellulose (CMC)
  T/C: 51 % of control [survivor count not shown]
[1]
  T/C: 17 % of control [survivor count not shown]
[2]
  T/C: 39 % of control [survivor count not shown]

## ClCCNCCCl
dose: 12.5 mg/kg/injection, vehicle: carboxymethylcellulose (CMC)
  T/C: 57 % of control [survivor count not shown]
[1]
  T/C: 54 % of control [survivor count not shown]
[2]
  T/C: 12 % of control [survivor count not shown]

## NC1CCCCC1.NP(=O)(O)N(CCCl)CCCl
dose: 8.0 mg/kg/injection, vehicle: saline
  T/C: 76 % of control [survivor count not shown]
dose: 16.0 mg/kg/injection, vehicle: saline
  T/C: 69 % of control [survivor count not shown]
dose: 32.0 mg/kg/injection, vehicle: saline
  T/C: 19 % of control [survivor count not shown]
